The target in assay [1] is T1, THOC5 (human (endogenous in SKOV-3 and PC-3)) (UniProt Q13769).
T1 sequence: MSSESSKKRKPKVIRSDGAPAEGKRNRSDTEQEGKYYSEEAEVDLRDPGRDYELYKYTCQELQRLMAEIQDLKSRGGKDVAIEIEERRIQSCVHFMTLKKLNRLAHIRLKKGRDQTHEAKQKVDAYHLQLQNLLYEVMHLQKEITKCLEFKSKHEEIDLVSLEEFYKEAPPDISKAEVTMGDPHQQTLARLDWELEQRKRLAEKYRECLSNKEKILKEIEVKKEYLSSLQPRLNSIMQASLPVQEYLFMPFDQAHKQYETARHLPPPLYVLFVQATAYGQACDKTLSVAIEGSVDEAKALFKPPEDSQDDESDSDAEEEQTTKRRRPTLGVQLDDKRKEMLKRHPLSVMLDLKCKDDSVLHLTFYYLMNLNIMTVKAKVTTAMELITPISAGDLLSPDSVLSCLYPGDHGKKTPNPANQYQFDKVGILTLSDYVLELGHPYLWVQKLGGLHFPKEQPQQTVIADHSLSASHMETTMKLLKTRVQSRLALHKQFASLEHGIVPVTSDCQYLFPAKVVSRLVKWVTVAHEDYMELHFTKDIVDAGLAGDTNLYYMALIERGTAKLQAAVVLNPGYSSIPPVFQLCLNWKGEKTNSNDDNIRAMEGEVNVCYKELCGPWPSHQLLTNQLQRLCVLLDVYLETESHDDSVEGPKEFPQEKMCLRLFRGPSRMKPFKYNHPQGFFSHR
The assay is described as follows: co-IP; small-scale IPs from PC-3 lysates (1 mg protein) with antibodies to THOC5, THOC2 or RAB11 on Protein G-Dynal beads, normal rabbit IgG as control; Western blot for THOC5, THOC2, SEPT2, SEPT7, RAB11, HMGB1. A general note: A western blot detects proteins with antibodies after separation by electrophoresis.

For assay [2], the target named is RAB11 (human (endogenous in PC-3)). The description is as above.

Results are given in words; binding and its absence hold for the method and conditions named. Binding seen in cells or lysates may run through a third protein. A result given as binding can be weak or reduced; the word gives no strength.

Turning to RAB11 (human (endogenous in PC-3)), the binding result in assay [1] is given as “binds”.

B1: SEPT2 (protein, UniProt Q15019 1-361)
chain: MSKQQPTQFINPETPGYVGFANLPNQVHRKSVKKGFEFTLMVVGESGLGKSTLINSLFLTDLYPERVIPGAAEKIERTVQIEASTVEIEERGVKLRLTVVDTPGYGDAINCRDCFKTIISYIDEQFERYLHDESGLNRRHIIDNRVHCCFYFISPFGHGLKPLDVAFMKAIHNKVNIVPVIAKADTLTLKERERLKKRILDEIEEHNIKIYHLPDAESDEDEDFKEQTRLLKASIPFSVVGSNQLIEAKGKKVRGRLYPWGVVEVENPEHNDFLKLRTMLITHMQDLQEVTQDLHYENFRSERLKRGGRKVENEDMNKDQILLEKEAELRRMQEMIARMQAQMQMQMQGGDGDGGALGHHV
In the case of B1, in assay [2], the binding entry is reported as “binds”.

B2: SEPT7 (protein, UniProt Q16181 1-437)
chain: MSVSARSAAAEERSVNSSTMVAQQKNLEGYVGFANLPNQVYRKSVKRGFEFTLMVVGESGLGKSTLINSLFLTDLYSPEYPGPSHRIKKTVQVEQSKVLIKEGGVQLLLTIVDTPGFGDAVDNSNCWQPVIDYIDSKFEDYLNAESRVNRRQMPDNRVQCCLYFIAPSGHGLKPLDIEFMKRLHEKVNIIPLIAKADTLTPEECQQFKKQIMKEIQEHKIKIYEFPETDDEEENKLVKKIKDRLPLAVVGSNTIIEVNGKRVRGRQYPWGVAEVENGEHCDFTILRNMLIRTHMQDLKDVTNNVHYENYRSRKLAAVTYNGVDNNKNKGQLTKSPLAQMEEERREHVAKMKKMEMEMEQVFEMKVKEKVQKLKDSEAELQRRHEQMKKNLEAQHKELEEKRRQFEDEKANWEAQQRILEQQNSSRTLEKNKKKGKIF
As for B2, in assay [2], the binding entry is “binds”.

These data come from paper PMC8466577.
